The target of experiment [1] is SPOP (UniProt O43791). Description: co-immunoprecipitation from transfected 293T cells (FIG. 12B).
The target of experiment [2] is T1, SPOP-S6A mutant (UniProt O43791 1-374).
T1 construct: also called Flag-SPOP S6A; phosphorylation-deficient S6A mutant of SPOP
Nature of the experiment: co-immunoprecipitation from transfected 293T cells (FIG. 13K).

Protein sequences, listed by entry. Tags and fused reporters are not part of them. Lines headed by an entry give the natural chain unless they say otherwise; changes in a name come on top. Residues count along the entry.
UniProt O43791: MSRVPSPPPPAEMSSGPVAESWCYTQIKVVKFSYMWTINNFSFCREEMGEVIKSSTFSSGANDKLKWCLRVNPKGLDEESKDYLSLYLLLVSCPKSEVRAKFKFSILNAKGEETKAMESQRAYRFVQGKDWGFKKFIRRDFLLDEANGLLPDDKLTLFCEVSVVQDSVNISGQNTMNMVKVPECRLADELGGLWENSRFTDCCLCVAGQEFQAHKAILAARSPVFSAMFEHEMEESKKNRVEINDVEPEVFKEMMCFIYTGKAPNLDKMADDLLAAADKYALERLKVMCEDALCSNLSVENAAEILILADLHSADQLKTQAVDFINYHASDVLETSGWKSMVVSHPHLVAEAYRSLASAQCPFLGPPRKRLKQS
UniProt Q9NZQ7, residues 19-290: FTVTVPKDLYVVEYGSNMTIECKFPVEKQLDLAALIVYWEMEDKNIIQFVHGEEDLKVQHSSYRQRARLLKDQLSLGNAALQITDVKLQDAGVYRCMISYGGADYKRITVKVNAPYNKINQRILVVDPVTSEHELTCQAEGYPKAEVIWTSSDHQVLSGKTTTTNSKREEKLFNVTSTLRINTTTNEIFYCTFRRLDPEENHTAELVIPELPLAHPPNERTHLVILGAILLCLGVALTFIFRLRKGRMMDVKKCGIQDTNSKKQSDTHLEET
UniProt Q12834: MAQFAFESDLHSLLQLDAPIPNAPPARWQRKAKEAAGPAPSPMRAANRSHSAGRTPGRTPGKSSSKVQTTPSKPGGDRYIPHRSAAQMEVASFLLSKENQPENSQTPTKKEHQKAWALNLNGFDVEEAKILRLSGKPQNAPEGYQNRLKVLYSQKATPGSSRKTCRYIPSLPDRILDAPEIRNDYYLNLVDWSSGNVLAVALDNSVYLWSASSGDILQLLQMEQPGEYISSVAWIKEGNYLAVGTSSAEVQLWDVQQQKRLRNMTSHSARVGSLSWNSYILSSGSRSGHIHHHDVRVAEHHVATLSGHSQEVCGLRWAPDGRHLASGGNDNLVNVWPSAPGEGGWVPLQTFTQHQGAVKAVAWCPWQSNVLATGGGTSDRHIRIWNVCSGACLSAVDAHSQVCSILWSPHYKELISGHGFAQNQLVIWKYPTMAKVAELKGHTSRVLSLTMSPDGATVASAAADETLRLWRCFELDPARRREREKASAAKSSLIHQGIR
UniProt Q9UM11: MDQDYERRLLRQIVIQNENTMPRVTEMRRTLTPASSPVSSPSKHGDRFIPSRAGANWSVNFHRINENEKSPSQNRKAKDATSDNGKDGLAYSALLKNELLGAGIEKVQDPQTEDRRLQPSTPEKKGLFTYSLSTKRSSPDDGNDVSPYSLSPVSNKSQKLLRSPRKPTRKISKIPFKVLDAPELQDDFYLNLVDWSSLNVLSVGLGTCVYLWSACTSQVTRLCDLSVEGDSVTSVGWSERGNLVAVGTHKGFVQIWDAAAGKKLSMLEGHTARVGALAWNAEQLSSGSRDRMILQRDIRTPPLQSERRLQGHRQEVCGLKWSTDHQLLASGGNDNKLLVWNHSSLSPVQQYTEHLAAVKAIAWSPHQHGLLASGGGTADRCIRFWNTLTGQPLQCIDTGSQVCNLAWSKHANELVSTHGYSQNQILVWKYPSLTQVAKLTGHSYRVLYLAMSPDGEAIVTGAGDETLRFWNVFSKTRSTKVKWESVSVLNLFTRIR
UniProt Q9Y297: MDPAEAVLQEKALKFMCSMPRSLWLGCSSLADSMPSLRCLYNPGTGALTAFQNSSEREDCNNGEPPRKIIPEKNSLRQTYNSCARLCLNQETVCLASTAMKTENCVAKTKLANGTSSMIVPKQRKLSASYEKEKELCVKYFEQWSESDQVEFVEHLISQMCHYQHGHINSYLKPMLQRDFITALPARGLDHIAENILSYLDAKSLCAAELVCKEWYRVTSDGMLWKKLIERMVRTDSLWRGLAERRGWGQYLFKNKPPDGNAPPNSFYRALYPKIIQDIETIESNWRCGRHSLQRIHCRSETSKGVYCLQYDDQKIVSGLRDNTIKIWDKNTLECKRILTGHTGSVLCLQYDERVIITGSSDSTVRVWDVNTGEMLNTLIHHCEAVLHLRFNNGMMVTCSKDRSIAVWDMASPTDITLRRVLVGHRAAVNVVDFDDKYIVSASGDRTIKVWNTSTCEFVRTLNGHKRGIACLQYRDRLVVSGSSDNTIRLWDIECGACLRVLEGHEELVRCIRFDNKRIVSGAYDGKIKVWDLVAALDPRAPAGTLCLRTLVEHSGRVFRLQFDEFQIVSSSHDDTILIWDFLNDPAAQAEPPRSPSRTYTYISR

Experiment [3] addresses SPOP (UniProt O43791). Description: co-immunoprecipitation from 293T cells with or without palbociclib (FIG. 4I).
Experiment [4] deals with SPOP (UniProt O43791). Nature of the experiment: co-immunoprecipitation (FIG. 4).
Experiment [5] has as its target SPOP (UniProt O43791). Description: co-immunoprecipitation of endogenous proteins, MDA-MB-231 (FIG. 4B) and HeLa cells (FIG. 12E).
The target in experiment [6] is T2, PD-L1 (human, UniProt Q9NZQ7 19-290, limits assumed).
T2 construct: also called HA-PD-L1; PD-L1 WT
Nature of the experiment: co-immunoprecipitation, transfected 293T cells (FIG. 3D) and PC3 cells (FIG. 3E).

Experiment [7] concerns the target T2, PD-L1. Description: co-immunoprecipitation from transfected 293T cells (FIG. 8G).
For experiment [8], the target named is T2, PD-L1. Nature of the experiment: GST pull-down and co-immunoprecipitation (FIG. 8).
Experiment [9] has as its target T2, PD-L1. Description: co-immunoprecipitation in cells.
Experiment [10] deals with T1, SPOP-S6A mutant. Nature of the experiment: co-immunoprecipitation from transfected 293T cells (FIG. 13J).
For experiment [11], the target named is T2, PD-L1. Description: co-immunoprecipitation from transfected 293T cells (FIG. 8F).
Substrate in experiment [12]: SPOP (UniProt O43791)
Nature of the experiment: co-immunoprecipitation and pull-down (FIG. 13).

Substrate in experiment [13]: SPOP (UniProt O43791)
Nature of the experiment: co-immunoprecipitation (FIG. 4). This is another data set of the same source.

Substrate in experiment [14]: SPOP (UniProt O43791)
Description: GST pull-down from transfected 293T cells (FIG. 13G).

Substrate in experiment [15]: SPOP (UniProt O43791)
Nature of the experiment: co-immunoprecipitation from 293T cells with or without palbociclib (FIG. 4I). This is another data set of the same source.

Substrate in experiment [16]: SPOP (UniProt O43791)
Nature of the experiment: co-immunoprecipitation from transfected 293T cells (FIG. 4G).

No constants are given. Whether binding was seen depends on the method and setting. Binding seen in cells or lysates may run through a third protein. Some binding calls cover weakened binding; strength is not graded here.

In the case of Cdc20 (from UniProt Q12834 1-499), in the experiment with SPOP [1], the binding entry is “binds”.
Take Cdh1 (from UniProt Q9UM11 1-496): the binding entry in the experiment with SPOP-S6A mutant [2], in the experiment with SPOP [3], in the experiment with SPOP [1], with SPOP [4] and with SPOP [5] was “binds” throughout.
For SPOP (from UniProt O43791 1-374), the binding result with PD-L1 [6], with PD-L1 [7], with PD-L1 [8] and with PD-L1 [9] was “binds” throughout.
“SPOP-S6A mutant (from UniProt O43791 1-374)”: the binding result with SPOP-S6A mutant [10] is listed as “binds”.
Turning to β-TRCP (from UniProt Q9Y297 1-605), in the experiment with PD-L1 [11], the binding result is listed as “binds”.

B1: 14-3-3γ (other, UniProt P61981 1-247, looked up)
chain: MVDREQLVQKARLAEQAERYDDMAAAMKNVTELNEPLSNEERNLLSVAYKNVVGARRSSWRVISSIEQKTSADGNEKKIEMVRAYREKIEKELEAVCQDVLSLLDNYLIKNCSETQYESKVFYLKMKGDYYRYLAEVATGEKRATVVESSEKAYSEAHEISKEHMQPTHPIRLGLALNYSVFYYEIQNAPEQACHLAKTAFDDAIAELDTLNEDSYKDSTLIMQLLRDNLTLWTSDQQDDDGGEGNN
notes: One of the HA-14-3-3 isoform constructs; also called HA-14-3-3γ
Turning to B1, the binding result in experiment [12], in [13], in experiment [14], in experiment [15] and in experiment [16] was “binds” throughout.

Source of the values: patent US20200377599A1, “COMPOSITIONS AND METHODS FOR TREATING CANCER” (BETH ISRAEL DEACONESS MEDICAL CENTER, INC., priority 2017, published 2020).
